Measurements reported in PubChem BioAssay AID743454 (Peter MacCallum Cancer Centre, 2014).
Assay: 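Genes whose loss kills vorinostat-resistant colon cancer cells under vorinostat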 (primary screen). System: human HCT116-VR colon cancer cells, selected for vorinostat resistance. Reagents: siRNA pool against human genes, 40 nM siRNA pool. Time to read-out: vorinostat for 24 h, read-out about 72 h after transfection. Challenge: vorinostat at 2.5 µM final. Detection: 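Two measures, CellTiter-Fluor viability and luminescent caspase 3/7 activity, each as fold change against same-plate mock wells, mean of duplicates, then screen-wide robust z-score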. Reading the numbers: viability robust z-score: higher = more viable cells than screen typical; caspase robust z-score: higher = more caspase 3/7 activity than screen typical. Hit rule: 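Hits are knock-downs in viability class RV1/RV2 or caspase class CA1/CA2, excluding ones that killed cells in the no-drug cell-count arm; hits then retested with single siRNAs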.
In all, the deposit lists about 18,000 reagents; below is a part drawn at random. Over the whole deposit, 450 (2.5%) are marked active. 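Single biological run; no consistent viability z cut-off exists, so the class columns, not z-scores, define the calls.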 Unmarked entries are inactive.

| gene | viability hit class | caspase hit class | viability robust z-score | caspase robust z-score |
| --- | --- | --- | --- | --- |
| OR5K3 | no change | no change | 0.8 | -1.08 |
| KLHL3 | no change | no change | -1.72 | -0.12 |
| FKBP10 | no change | no change | -1 | -0.18 |
| NPR1 | no change | no change | 0.52 | -0.25 |
| ZFAND2B | no change | no change | -0.8 | 3.1 |
| HGD | no change | no change | -0.74 | -0.84 |
| PLOD1 | no change | no change | -1.23 | -0.76 |
| SMIM21 | no change | no change | -0.38 | -0.97 |
| MRM3 | no change | no change | 0.92 | -0.41 |
| TM4SF19 | no change | no change | -0.45 | -0.24 |
| TBC1D22B | no change | no change | 1.37 | -0.32 |
| GPR107 | no change | no change | -1.66 | -0.22 |
| PAGR1 | no change | no change | 1.68 | 2.29 |
| ASAP1 | no change | no change | -0.56 | 1.65 |
| ANXA4 | no change | no change | 0.08 | 0.4 |
| JPT1 | no change | no change | -0.93 | -0.99 |
| MUC16 | no change | no change | -1.36 | -0.74 |
| TAFA5 | no change | no change | 0.46 | 1.01 |
| CINP | no change | no change | -1.17 | 2.61 |
| RBM15 | no change | no change | -1.39 | -0.9 |
| ENTR1 | no change | no change | -0.35 | -1.18 |
| ACOT11 | no change | no change | 0.16 | 1.32 |
| SUPT3H | no change | no change | 0.42 | -0.92 |
| PER1 | no change | no change | 0.98 | -0.17 |
| MYOCD | no change | no change | -0.05 | 1.71 |
| C2orf69 | no change | no change | -0.96 | -1.04 |
| OSGEPL1 | no change | no change | -0.25 | 0.25 |
| APTX | no change | no change | 0.34 | 0.72 |
| ZNF691 | no change | no change | 1.33 | 1.52 |
| EDEM3 | no change | no change | 0.48 | -0.38 |
| AMY1B | no change | no change | 0.86 | -0.7 |

Next part, starting with the last 8 of the part before.
| gene | viability hit class | caspase hit class | viability robust z-score | caspase robust z-score |
| --- | --- | --- | --- | --- |
| PER1 | no change | no change | 0.98 | -0.17 |
| MYOCD | no change | no change | -0.05 | 1.71 |
| C2orf69 | no change | no change | -0.96 | -1.04 |
| OSGEPL1 | no change | no change | -0.25 | 0.25 |
| APTX | no change | no change | 0.34 | 0.72 |
| ZNF691 | no change | no change | 1.33 | 1.52 |
| EDEM3 | no change | no change | 0.48 | -0.38 |
| AMY1B | no change | no change | 0.86 | -0.7 |
| GDPD3 | no change | no change | 0.19 | -0.46 |
| KRTAP19-7 | no change | no change | 0.14 | 2.22 |
| TUBB8 | no change | no change | 0.67 | 0.48 |
| ATL3 | no change | no change | -0.7 | -0.86 |
| GIMAP8 | no change | no change | -0.67 | -0.3 |
| DSC2 | no change | no change | 0.66 | 0.42 |
| ARK2C | no change | no change | 1 | -0.54 |
| SERINC5 | no change | no change | 1.52 | -0.42 |
| KBTBD6 | no change | no change | 0.68 | -0.4 |
| OR9A2 | no change | no change | -0.05 | -0.28 |
| CER1 | no change | no change | -0.22 | -0.5 |
| DDX19B | RV2 (reduced viability) (active) | no change | -3.91 | 2.16 |
| TIAM2 | no change | no change | -1.77 | 1.05 |
| ADCK5 | no change | no change | 0.36 | 0.4 |
| NINL | no change | no change | 1.17 | 0.2 |
| IGFALS | no change | no change | -1.12 | 2.24 |
| TRPM7 | no change | no change | -1.94 | -1.27 |
| ELK1 | no change | no change | -0.56 | -0.3 |
| SPATA46 | no change | no change | 0.62 | 0.15 |
| TUBGCP5 | no change | no change | -1.9 | 2.16 |
| DCAF11 | no change | no change | 0.76 | -0.48 |
| AKR1C8 | no change | no change | -0.22 | -0.57 |
| XBP1 | no change | no change | 1.68 | 0.2 |
| GDA | no change | no change | 0.09 | -0.38 |
| ITIH4 | no change | no change | -2.23 | 0.5 |
| DEF6 | no change | no change | 0.99 | 0.01 |
